Assay results taken from publication PMC9849454, “Kaposi’s sarcoma-associated herpesvirus induces specialised ribosomes to efficiently translate viral lytic mRNAs” (Nature Communications, 2023).
Results are given in words; binding and its absence hold for the method and conditions named. In cells and extracts the contact can be indirect. These calls come from enrichment with a bait or labelling near it, and not all partners need be listed. For part of these data: A no says only that the protein was not detected with the bait. For part of these data: Where a sequence is shown, tags or fusion partners need not be part of it.

By UniProt entry, the sequences of proteins in these tests, tags left out.
UniProt Q9NRX1: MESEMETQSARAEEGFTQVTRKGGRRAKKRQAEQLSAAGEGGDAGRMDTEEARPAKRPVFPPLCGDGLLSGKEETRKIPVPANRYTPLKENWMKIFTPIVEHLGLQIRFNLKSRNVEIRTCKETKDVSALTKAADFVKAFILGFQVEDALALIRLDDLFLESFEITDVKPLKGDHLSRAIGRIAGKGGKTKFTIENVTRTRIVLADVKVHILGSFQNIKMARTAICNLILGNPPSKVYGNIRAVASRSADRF

T1: FLAG-2xStrep-tagged TSR1 (UniProt Q2NL82)
T1 sequence: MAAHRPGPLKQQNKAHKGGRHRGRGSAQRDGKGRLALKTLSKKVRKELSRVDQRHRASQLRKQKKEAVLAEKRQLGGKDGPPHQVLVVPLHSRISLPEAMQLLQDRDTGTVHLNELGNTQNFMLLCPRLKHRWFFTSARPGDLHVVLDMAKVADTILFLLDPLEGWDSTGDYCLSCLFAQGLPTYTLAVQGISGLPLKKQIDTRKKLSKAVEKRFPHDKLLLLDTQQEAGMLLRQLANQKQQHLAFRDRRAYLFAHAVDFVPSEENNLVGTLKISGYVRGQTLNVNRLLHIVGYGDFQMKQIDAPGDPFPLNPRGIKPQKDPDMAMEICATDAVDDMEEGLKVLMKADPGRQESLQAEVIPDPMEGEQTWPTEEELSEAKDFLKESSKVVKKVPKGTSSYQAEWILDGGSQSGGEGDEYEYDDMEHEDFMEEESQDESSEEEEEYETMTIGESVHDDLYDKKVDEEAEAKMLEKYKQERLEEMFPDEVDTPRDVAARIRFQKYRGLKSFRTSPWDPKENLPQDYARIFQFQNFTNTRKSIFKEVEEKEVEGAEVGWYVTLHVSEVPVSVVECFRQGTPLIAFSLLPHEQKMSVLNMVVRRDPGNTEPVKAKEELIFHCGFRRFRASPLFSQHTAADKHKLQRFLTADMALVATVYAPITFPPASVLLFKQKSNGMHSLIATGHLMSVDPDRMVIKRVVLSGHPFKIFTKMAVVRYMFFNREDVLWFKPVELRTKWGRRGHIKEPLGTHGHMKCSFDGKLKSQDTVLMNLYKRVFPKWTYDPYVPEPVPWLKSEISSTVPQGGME

B1: BUD23 (natural protein, human (endogenous in TREx BCBL1-Rta), UniProt O43709 1-281, looked up)
chain: MASRGRRPEHGGPPELFYDETEARKYVRNSRMIDIQTRMAGRALELLYLPENKPCYLLDIGCGTGLSGSYLSDEGHYWVGLDISPAMLDEAVDREIEGDLLLGDMGQGIPFKPGTFDGCISISAVQWLCNANKKSENPAKRLYCFFASLFSVLVRGSRAVLQLYPENSEQLELITTQATKAGFSGGMVVDYPNSAKAKKFYLCLFSGPSTFIPEGLSENQDEVEPRESVFTNERFPLRMSRRGMVRKSRAWVLEKKERHRRQGREVRPDTQYTGRKRKPRF
B2: NOC4L (natural protein, human (endogenous in TREx BCBL1-Rta), UniProt Q9BVI4 1-516, looked up)
chain: MEREPGAAGVRRALGRRLEAVLASRSEANAVFDILAVLQSEDQEEIQEAVRTCSRLFGALLERGELFVGQLPSEEMVMTGSQGATRKYKVWMRHRYHSCCNRLGELLGHPSFQVKELALSALLKFVQLEGAHPLEKSKWEGNYLFPRELFKLVVGGLLSPEEDQSLLLSQFREYLDYDDTRYHTMQAAVDAVARVTGQHPEVPPAFWNNAFTLLSAVSLPRREPTVSSFYVKRAELWDTWKVAHLKEHRRVFQAMWLSFLKHKLPLSLYKKVLLIVHDAILPQLAQPTLMIDFLTRACDLGGALSLLALNGLFILIHKHNLEYPDFYRKLYGLLDPSVFHVKYRARFFHLADLFLSSSHLPAYLVAAFAKRLARLALTAPPEALLMVLPFICNLLRRHPACRVLVHRPHGPELDADPYDPGEEDPAQSRALESSLWELQALQRHYHPEVSKAASVINQALSMPEVSIAPLLELTAYEIFERDLKKKGPEPVPLEFIPAQGLLGRPGELCAQHFTLS
B3: KSHV ORF11 protein (protein, UniProt Q2HRC8 1-407)
chain: MAQESEQCSRAFAVCSSKRQLGRGEPVWDSVIHPSHIVISNRVPLLLREQNICLPSCPSVGQILHRAYPNFTFDNTHRKQQTETYTAFYAFGDQNNKVRILPTVVESSSSVLIFRLRASVSANIAVGGLKIIILALTLVHAQGVYLRCGKDLSTPHCAPAIVQREVLSSGFEPQFTVTGIPVTSSNLNQCYFLVRKPKSRLAKPFARLSAETTEECRVRSIRLGKTHLRISVTAPAQETPVWGLVTTSFSLTPTAPLAFDRNPYNHETFACNARHYIPVIYSGPKITLAPRGRQVVWHNNSYTSSLPCKVTAIVSNHCCNCDIFLEDSEWRPNKPAPLKLVNTSDHPVILEPDTHIGNALFIIAPKARGLRRLTRLTTKTIELPGGVKIDSRKLQTFRKMYVATGRS

Legend:
[1] = biological target: T2, FLAG-2xStrep-PNO1 (UniProt Q9NRX1 1-252); test: affinity purification with mass spectrometry
T2 construct: also called PNO1 bait protein

[2] = biological target: T1, FLAG-2xStrep-tagged TSR1; test: affinity purification with mass spectrometry

Binder	binding [1]	binding [2]
B1	binds	–
B2	binds	–
B3	–	no binding
